Structures can show the parent of a compound that is named as a salt. Some of the results follow. The calls rarely recur for the same compound in another form.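 Kinases, fused to nanoluciferase, were expressed in K562 cells; luminescence was measured every 4 h from 2 to 18 h as percent of control (DMSO = 100%, positive control = 0%). A time point is decreased if signal falls significantly (2 sigma). Hits were called by the authors by a rule that is not shown; the count of time points alone does not decide it.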
target: STK38 (UniProt Q15208); test: kinase-Nluc reporter destabilization hit call (1 = scored as downregulated) (binary); higher = compound decreases kinase abundance; settings: K562; 2-18 h

By UniProt entry, the sequences of proteins in these tests, tags left out. Where a name states a change or a piece, a line headed by the entry shows the natural chain unless it says otherwise.
UniProt Q15208: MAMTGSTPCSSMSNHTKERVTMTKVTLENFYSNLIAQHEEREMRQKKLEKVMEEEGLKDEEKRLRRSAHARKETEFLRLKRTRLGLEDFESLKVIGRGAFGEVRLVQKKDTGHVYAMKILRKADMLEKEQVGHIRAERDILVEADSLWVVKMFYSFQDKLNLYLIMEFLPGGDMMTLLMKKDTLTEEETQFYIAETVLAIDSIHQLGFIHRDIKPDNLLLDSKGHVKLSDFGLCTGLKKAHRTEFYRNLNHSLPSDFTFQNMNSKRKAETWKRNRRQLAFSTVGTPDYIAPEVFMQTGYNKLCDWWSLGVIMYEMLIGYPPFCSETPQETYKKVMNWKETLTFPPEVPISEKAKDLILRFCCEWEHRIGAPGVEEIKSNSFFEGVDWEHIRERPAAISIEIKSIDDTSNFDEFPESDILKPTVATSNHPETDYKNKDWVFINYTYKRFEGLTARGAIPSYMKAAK

kinase-Nluc reporter destabilization hit call, inactive:
N#Cc1cnc2c(Cl)cc(NCc3cn(CCN4CCCCCC4)nn3)cc2c1Nc1ccc(F)c(Cl)c1 [Cot inhibitor-1] (10 µM) 0
Cc1cc(Nc2cc(N)ncn2)c(=O)n2c1C(=O)NC21CCCCC1 [Tomivosertib] (10 µM) 0
CC(Cc1ccc(O)c(O)c1)C(C)Cc1ccc(O)c(O)c1 (stereo unspecified) [Nordihydroguaiaretic acid] (2.5 µM) 0
CNC(=O)c1ccc2c(C(=Nc3cccc(CN(C)C)c3)c3ccccc3)c(O)[nH]c2c1 [MEK inhibitor] (10 µM) 0
COC(=O)[C@H](CCSC)NC(=O)c1ccc(NC[C@@H](N)CS)cc1-c1ccccc1 [FTI-277 (hydrochloride)] (10 µM) 0
C=CC(=O)Nc1ccc(C(=O)Nc2[nH]nc3c2CN(C(=O)N[C@H](CN(C)C)c2ccccc2)C3(C)C)cc1 (10 µM) 0
CCN(CC)CCCC(C)Nc1nc(C)cc(Nc2ccc3nc(C)cc(N)c3c2)n1 (stereo unspecified) (10 µM) 0
COc1cc(F)ccc1-c1ncnc(Nc2cccc(C[S@](C)(=N)=O)c2)n1 [Atuveciclib] (2.5 µM) 0
O=C(c1cccc(Cl)c1F)N1CCN(Cc2cccc(Nc3nccs3)n2)CC1 (2.5 µM) 0
N#Cc1ccc(-c2cnc3ccc(-c4ccc(C(=O)N5CCOCC5)cc4)cn23)cc1 (10 µM) 0
Cc1ccc(C(=O)NC2CC2)cc1-n1ncc(C(=O)c2cccc(C#N)c2)c1N [Acumapimod] (10 µM) 0

3 compounds from above, arranged by molecular weight, descending.
kinase-Nluc reporter destabilization hit call, inactive:
C=CC(=O)Nc1ccc(C(=O)Nc2[nH]nc3c2CN(C(=O)N[C@H](CN(C)C)c2ccccc2)C3(C)C)cc1 (10 µM) 0
COC(=O)[C@H](CCSC)NC(=O)c1ccc(NC[C@@H](N)CS)cc1-c1ccccc1 [FTI-277 (hydrochloride)] (10 µM) 0
Cc1ccc(C(=O)NC2CC2)cc1-n1ncc(C(=O)c2cccc(C#N)c2)c1N [Acumapimod] (10 µM) 0

Source: the supplement of paper PMC12823440, “Inhibitors supercharge kinase turnover through native proteolytic circuits” (Nature, 2025)
